# Experimental data published in the supplement of paper PMC12889115.
# The list shows a part of the results. These are raw signals, not scaled to a control.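 In the initial screen, polymyxin B was used at a concentration that permeabilizes Salmonella's outer membrane but not its inner membrane. Maximum growth was set by DMSO wells with or without polymyxin B. Since plates varied, data were ranked per plate, and compounds giving the lowest OD600 advanced as hits.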
# Test system: Salmonella enterica serovar Typhimurium SL1344
# Test: bacterial growth OD600 after 18 h with compound and polymyxin B; higher = more bacterial growth (less inhibition)
# Details: 50 µM, Mueller-Hinton broth
Compound,bacterial growth OD600 (polymyxin B 1 µg/mL),bacterial growth OD600 (polymyxin B 0.75 µg/mL)
CCOC(=O)C1(C/C=C/c2ccccc2)CCCN(Cc2cccnc2)C1 (stereo not given),0.058,–
OCCC1CN(Cc2ccc(O)cc2)CCN1Cc1ccc(F)c(F)c1 (stereo not given),0.999,–
COc1cccc(CN2CCCC3(CCN(C(=O)c4cc(C)ccc4O)C3)C2)c1 (stereo not given),0.751,–
COCc1noc(-c2ccc(NCc3nc(C)c(C)s3)nc2)n1,–,0.873
CN1C(=O)CC(CC(=O)N2CCN(c3ncccn3)CC2)(c2ccc(-c3ccccc3)cc2)C1=O (stereo not given),–,0.799
Cc1nn(C)c(C)c1CN(C(=O)c1cc(COc2ccccc2)on1)C1CC1,–,0.777
Cc1ccc(OCc2cc(C(=O)NCCc3c[nH]c4ccccc34)no2)cn1,–,0.284
CCOC(=O)N1CCC(NC2CCN(c3cccc(NC(=O)c4ccccc4OC)c3)CC2)CC1,–,0.861
O=C(CSc1ccccn1)NCc1cccnc1N1CCOCC1,0.81,–
CC(C)CN1CCC(CNC(=O)c2cc(NC(=O)C3CCCO3)c3c(c2)nc(C2CCC2)n3C)CC1 (stereo not given),–,0.811
Cc1cccnc1CC(C)NC(=O)c1cc(Cn2ccnc2C(C)C)[nH]n1 (stereo not given),1.01,–
CCNC(=O)c1cn(CCc2ccccc2)cc(C(=O)N(C)Cc2cc3ccccc3s2)c1=O,–,0.863
O=C(Nc1ccnn1C1CCN(C(=O)C2=CCCC2)CC1)C1CC1,–,0.854
CCOc1cc(CNC(C)c2cnn(-c3cccc(F)c3)c2C)ccc1OC (stereo not given),–,0.794
CSCC(=O)NC1CC(=O)N(Cc2cccc3ccccc23)C1 (stereo not given),0.936,–
Cc1oc(-c2ccccc2NC(=O)CCOc2ccccc2)nc1CNC(=O)CCn1nccc1C,–,0.005
OCC1(Cc2ccc(Cl)cc2)CCN(Cc2ccccc2F)CC1,0.661,–
CCC1CN(c2ccc(-c3nc(COc4ccccc4)no3)cn2)CCN1C (stereo not given),0.565,–
COc1ccc([C@@H](C)NC(=O)C2CCCN(c3nc(C)c4ccc(OC)cc4n3)C2)cc1 (stereo not given in full),–,0.54
CC(=O)Nc1cccc(C(=O)N2CCOC(CCc3ccccc3)C2)c1 (stereo not given),–,0.738

# Looked up one by one from the entries so far:
Compound,bacterial growth OD600 (polymyxin B 1 µg/mL),bacterial growth OD600 (polymyxin B 0.75 µg/mL)
CN1C(=O)CC(CC(=O)N2CCN(c3ncccn3)CC2)(c2ccc(-c3ccccc3)cc2)C1=O (stereo not given),–,0.799
OCC1(Cc2ccc(Cl)cc2)CCN(Cc2ccccc2F)CC1,0.661,–
